The other results are listed elsewhere or left out.
These sequences were tested against OsWRKY34 (Oryza sativa, UniProt Q0JBA9 1-250) (assay: protein-binding microarray (RPBM); PBS, 2% BSA, 51.3 ng/ul salmon testes DNA, 50 uM zinc acetate, 200 nM TF, 25 C, 1 h; high values mean tight binding). Conditions: protein: recombinant; tags: N-terminal polyhistidine and DsRed monomer fusion (pET32a); label: CyDye5-dUTP incorporated in the synthesized complementary strand; 3' TTTTT single-stranded linker to array surface; dsDNA, one strand shown.
Procedure, shortened: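 In PBS with 2% BSA, salmon testes DNA and 50 µM zinc acetate, 200 nM protein was incubated on a custom Agilent array at 25 °C for 1 h and then washed off. The array had been made double-stranded by primer extension with Cy5-dUTP and blocked with 2% BSA. The proteins were transcription factors fused N-terminally to polyhistidine and DsRed, expressed in E. coli BL21-CodonPlus and purified on Ni–NTA. The binding signal is per-feature fluorescence intensity (arbitrary units) from an Axon 4000B scanner.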

Chains of the proteins cited; added tags and fusions are not shown.
UniProt Q0JBA9, entry or part of it: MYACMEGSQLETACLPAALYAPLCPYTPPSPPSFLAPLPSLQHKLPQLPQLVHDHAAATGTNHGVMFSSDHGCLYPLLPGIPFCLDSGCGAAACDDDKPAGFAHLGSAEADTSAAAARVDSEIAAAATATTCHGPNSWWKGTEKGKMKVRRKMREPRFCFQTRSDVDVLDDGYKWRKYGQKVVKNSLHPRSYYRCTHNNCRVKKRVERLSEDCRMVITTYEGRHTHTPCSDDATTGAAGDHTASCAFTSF

Sequence | binding signal
AAACTTTCAACTTTTTTCTCACATCGTTCTAATTTCAACTCGGAGTCACCTAGTGCAG | 8770 fluorescence intensity (a.u.)
CCCGCTCACGCCGCCGCATCCGCCTTCCGCTCGCGCCGCCCGGAGTCACCTAGTGCAG | 9060 fluorescence intensity (a.u.)
ATCTTAAGCCATTCTTGTATAATTAGCATTTGTTTCTTGGCGGAGTCACCTAGTGCAG | 9080 fluorescence intensity (a.u.)
CCTTGTACCGTGGGGCGGAGGGAGTAGTAGAGTTTATTCACGGAGTCACCTAGTGCAG | 9890 fluorescence intensity (a.u.)
CGGTGAATGGTTTGAGTAAGTTTAGGGGTAGACGTTTCTGCGGAGTCACCTAGTGCAG | 8410 fluorescence intensity (a.u.)
GCCCACTAGCCCTGCTCGCTCCGGCTTCCCCGACTCCATGCGGAGTCACCTAGTGCAG | 8530 fluorescence intensity (a.u.)
ATTGGACGACTTAAATACCACTTGTCGTGTCGTTCTCACTCGGAGTCACCTAGTGCAG | 9100 fluorescence intensity (a.u.)
ATTTGTGATGTGGATTTGGGGTGTTACTTTGATTTGGGGACGGAGTCACCTAGTGCAG | 12900 fluorescence intensity (a.u.)
AGTCTAAACTCAAACTTTCTCACTGTTATAAGCTTTTCTTCGGAGTCACCTAGTGCAG | 8920 fluorescence intensity (a.u.)
TTCTCTCACTCTCTCGTGATACTGCAGTAGCCTTTTTCCACGGAGTCACCTAGTGCAG | 8160 fluorescence intensity (a.u.)
GTTTTGGTAGTGGCTGGGAGTACATTTGATTTGAGCCATGCGGAGTCACCTAGTGCAG | 8060 fluorescence intensity (a.u.)
AGCGGTAAATTGTGTTTGTTGTTAATTTGTCTTTAATTCCCGGAGTCACCTAGTGCAG | 8980 fluorescence intensity (a.u.)
GTATATATAGTCATTGACATCACACACACATTACGGTCATCGGAGTCACCTAGTGCAG | 9910 fluorescence intensity (a.u.)
TTCTCTCTCTTTCTCTCTCTCTCGCAATTTTTCCCCATCACGGAGTCACCTAGTGCAG | 8220 fluorescence intensity (a.u.)
ATTCCTTGTTGGTAACTGTACCCAGGGGCGGGTCCAACGTCGGAGTCACCTAGTGCAG | 8270 fluorescence intensity (a.u.)
GAGCCCACTCTTCCCACTTCCCTAGTACTATCACACACACCGGAGTCACCTAGTGCAG | 8850 fluorescence intensity (a.u.)
AGATTGATTGCCGTGTTCATGCGTAGCCACCGTCCCTAAACGGAGTCACCTAGTGCAG | 11600 fluorescence intensity (a.u.)
GTGGTGGGTGCGCGACGTATGGCAGGGGAAATTCAGCTCTCGGAGTCACCTAGTGCAG | 11600 fluorescence intensity (a.u.)
ACGCCTACAATGGTACTGTGTTTTTTTTATGATAGCGGTGCGGAGTCACCTAGTGCAG | 8060 fluorescence intensity (a.u.)
ATTTTGGTACTACTCTATATTTTAGTTTGCAGCTTGTGCTCGGAGTCACCTAGTGCAG | 10600 fluorescence intensity (a.u.)
CTCAGTTCCTGCCTCCGCCGACTGTTTCTTCTTCTTTGAGCGGAGTCACCTAGTGCAG | 9010 fluorescence intensity (a.u.)

Copied from the results shown (3 entries):
Sequence | binding signal
TTCTCTCTCTTTCTCTCTCTCTCGCAATTTTTCCCCATCACGGAGTCACCTAGTGCAG | 8220 fluorescence intensity (a.u.)
ATTCCTTGTTGGTAACTGTACCCAGGGGCGGGTCCAACGTCGGAGTCACCTAGTGCAG | 8270 fluorescence intensity (a.u.)
GAGCCCACTCTTCCCACTTCCCTAGTACTATCACACACACCGGAGTCACCTAGTGCAG | 8850 fluorescence intensity (a.u.)

Following part:

Sequence | binding signal
CTCTCTTGTTACGTTTTTTTCCATTTTGTTGTGGCGGATGCGGAGTCACCTAGTGCAG | 8990 fluorescence intensity (a.u.)
CCTCCTGCACCCGACACCATACGCCCGCTCTCTCTGACACCGGAGTCACCTAGTGCAG | 9410 fluorescence intensity (a.u.)
ACATCAGGAGGAGGGGAGGTCCGGGAGGAAGAAGAAAGGGCGGAGTCACCTAGTGCAG | 10900 fluorescence intensity (a.u.)
AGCACCTCTTTTCTTTTTCATTTCTCCTGTGTGGATAGATCGGAGTCACCTAGTGCAG | 12000 fluorescence intensity (a.u.)
AGGGTTTTCTATCTATCCATCTAGATTTTGATCTTCCCCTCGGAGTCACCTAGTGCAG | 8990 fluorescence intensity (a.u.)
GAAACCCTCGTTGCATCACCTCCACATTTCACTCGTTTGCCGGAGTCACCTAGTGCAG | 8540 fluorescence intensity (a.u.)
TATTTTGGTAGTGCCCTTATACTATTTGGTCATTTTCTAGCGGAGTCACCTAGTGCAG | 9840 fluorescence intensity (a.u.)
AAACAACACTTTTGGTCAATATACACACTCCGTAATCACCCGGAGTCACCTAGTGCAG | 10500 fluorescence intensity (a.u.)
AATGGTCAAACATGTGAGAAAAAGTCAACGGCGTTATCTACGGAGTCACCTAGTGCAG | 15500 fluorescence intensity (a.u.)
TAAGGGGCATAGTTATTTCTCTTCACTGATAGTTTGTCTGCGGAGTCACCTAGTGCAG | 8090 fluorescence intensity (a.u.)
CTTTAACCAGCGCATCACAATCCACATCGATTGGTTACTTCGGAGTCACCTAGTGCAG | 9650 fluorescence intensity (a.u.)
TAGTTAGCAGGTTTTGCACCCATTCAATGTGTTCTGTGTTCGGAGTCACCTAGTGCAG | 8160 fluorescence intensity (a.u.)
AAGTAGGGGCGAGAGTGGTTGGTTGGGTACGGGAAAAATACGGAGTCACCTAGTGCAG | 9140 fluorescence intensity (a.u.)
GGACCCACATGTCAGCATCACATTTTTTTCTGTCTCCTCCCGGAGTCACCTAGTGCAG | 8210 fluorescence intensity (a.u.)
ACCCTCTCGCCCGGCTGGTGCTGCTTCCTGCAAAGTAACACGGAGTCACCTAGTGCAG | 9850 fluorescence intensity (a.u.)
ATTCCTCACATTTTACATTTTTACATTGGGTTTTGCATTTCGGAGTCACCTAGTGCAG | 9990 fluorescence intensity (a.u.)
CGCCGTTGACTTTTCATATAATATTTAACAATTCGCTTTACGGAGTCACCTAGTGCAG | 36800 fluorescence intensity (a.u.)
GCCAATGCCCTGGAAAGTGTATATCTGGGTTTCCTTTACTCGGAGTCACCTAGTGCAG | 8930 fluorescence intensity (a.u.)
ATTCATGTTTACATTTCCAGGTACATATTTACATTCGCCACGGAGTCACCTAGTGCAG | 9000 fluorescence intensity (a.u.)
TTCAGCCGTGACTTTTTTTACTATGTCTACCAACAAACTACGGAGTCACCTAGTGCAG | 10400 fluorescence intensity (a.u.)
CTCAGCCTCATCACTCACGAGCAATCAGCTAGCTAGCTTACGGAGTCACCTAGTGCAG | 8120 fluorescence intensity (a.u.)
